According to PubChem BioAssay AID330 (DTP/NCI, 2004):
The list does not hold the whole screen: it gathers tests that were run many times, whatever their T/C, doses with no T/C, and many T/C values between a quarter and a half above the control. Further doses and runs are listed elsewhere. T/C is the treated group as % of the vehicle group. Some entries give survivors of the animals treated and no T/C: the source holds a T/C of zero for them, seemingly a mark for toxic or unscored doses. Some doses without a T/C left all or most animals alive at the check, yet need not have been tolerated: the source hardly ever lists a survival T/C far under the control, and the zero likely stands for such cases as well. Survivors were counted at the toxicity check, usually on the fifth day, unless a day is given; later deaths do not show. Schedule codes are those of the source, taken here to give the interval after Q, in days (D) or hours (H), and the number of doses after X. Some entries were tested several times; the results are listed from low to high. Additions like (4×) stand for listed records that agree. Some structures stand for samples that the source files as different forms (salt, stereo form or complex); doses refer to the form tested. Where survival is the endpoint, this PubChem deposit counts one and a half times the control or more as active, and values a quarter to a half above the control carry no call in these data; other NCI protocols may use other cut-offs. Some T/C values carry the count of animals alive at the toxicity check (mostly the fifth day); where none is given, no animal had died by that day.

Tested on: P388 leukemia ip, CD2F1 mice, survival T/C
Assay: NCI In Vivo Anticancer Drug Screen. Data for tumor model P388 Leukemia (intraperitoneal) in CD2F1 (CDF1) mice
Conditions: T/C endpoint: median survival time, higher T/C = longer survival
[1] = dose: 200.0 mg/kg/injection, schedule: Q01DX009 (ip), vehicle: Klucel (hydroxypropylcellulose) (HPC)
[2] = dose: 200.0 mg/kg/injection, schedule: Q01DX005 (ip), vehicle: saline with Tween-80
[3] = dose: 50.0 mg/kg/injection, schedule: Q01DX005 (ip), vehicle: saline
[4] = dose: 100.0 mg/kg/injection, schedule: Q01DX005 (ip), vehicle: saline
[5] = dose: 200.0 mg/kg/injection, schedule: Q01DX005 (ip), vehicle: saline
[6] = dose: 200.0 mg/kg/injection, schedule: Q01DX009 (ip), vehicle: saline
[7] = dose: 50.0 mg/kg/injection, schedule: Q01DX009 (ip), vehicle: saline
[8] = dose: 100.0 mg/kg/injection, schedule: Q01DX009 (ip), vehicle: saline
[9] = dose: 200.0 mg/kg/injection, schedule: Q01DX005 (ip), vehicle: Klucel (hydroxypropylcellulose) (HPC)
[10] = dose: 25.0 mg/kg/injection, schedule: Q01DX009 (ip), vehicle: saline

Cc1cc(NC(=S)SCc2ccc(Cl)cc2)ccc1Cl
T/C (dose: 100.0 mg/kg/injection, schedule: Q01DX009 (ip), vehicle: Klucel (hydroxypropylcellulose) (HPC), evaluated on day 20): 129 % of control | T/C (dose: 100.0 mg/kg/injection, schedule: Q01DX009 (ip), vehicle: Klucel (hydroxypropylcellulose) (HPC), evaluated on day 30): 134 % of control | T/C [1]: 142 % of control [5 of 6 alive] | survivor count [1]: 1 of 6 | survivor count (dose: 400.0 mg/kg/injection, schedule: Q01DX009 (ip), vehicle: Klucel (hydroxypropylcellulose) (HPC)): 0 of 6

COC(=O)Nc1nc2ccc(C(O)(c3ccccc3)c3cccs3)cc2[nH]1 (stereo not drawn)
T/C [2]: 126 % of control

O=C(NC1=NN(Cc2ccccc2)C(=O)C1)c1ccc(S(=O)(=O)F)cc1
survivor count (dose: 240.0 mg/kg/injection, schedule: Q01DX005 (ip), vehicle: saline with Tween-80): 3 of 6

NC(N)=NCCCC(N)C(=O)N1CCCC1C(=O)N1CCCC1C(=O)NC(CCCN=C(N)N)C(=O)O (stereo not drawn)
survivor count [3]: 3 of 6 | survivor count [4]: 1 of 6 | survivor count [5]: 0 of 6

O=Cc1cc(O)ccc1O
survivor count [6]: 0 of 6 | survivor count (dose: 400.0 mg/kg/injection, schedule: Q01DX009 (ip), vehicle: saline): 0 of 6 | survivor count (dose: 600.0 mg/kg/injection, schedule: Q01DX009 (ip), vehicle: saline): 0 of 6

CCC(c1ccc(OCc2ccccc2)cc1)c1cc2c(cc1OC)OCO2 (stereo not drawn)
survivor count (dose: 50.0 mg/kg/injection, schedule: Q01DX005 (ip), vehicle: distilled water + Tween-80): 6 of 6 | survivor count (dose: 100.0 mg/kg/injection, schedule: Q01DX005 (ip), vehicle: distilled water + Tween-80): 6 of 6 | survivor count (dose: 200.0 mg/kg/injection, schedule: Q01DX005 (ip), vehicle: distilled water + Tween-80): 6 of 6

CCCCCCCCCCCC[N+]1([O-])CCCC1
survivor count [7]: 6 of 6 | survivor count [8]: 0 of 6 | survivor count [6]: 0 of 6

CCc1nc(N)nc(N)c1-c1ccc2c(c1)nnn2CCc1ccccc1
survivor count [9]: 3 of 6

O=C(O)CC1C(=O)OC2C3COC(=O)c4cc(O)c(O)c(O)c4-c4c(cc(O)c(O)c4O)C(=O)OC2C(OC(=O)c2cc(O)c(O)c4c2C1C(O)C(=O)O4)C(OC(=O)c1cc(O)c(O)c(O)c1)O3 (stereo not drawn)
survivor count [8]: 5 of 6 | survivor count [6]: 1 of 6

O=C(Nc1ccccc1)P(=S)(c1ccccc1)c1ccccc1
survivor count (dose: 100.0 mg/kg/injection, schedule: Q01DX005 (ip), vehicle: Klucel (hydroxypropylcellulose) (HPC)): 6 of 6

Cc1csc(=NCc2cccnc2)n1C
survivor count [10]: 1 of 6 | survivor count [7]: 0 of 6 | survivor count [8]: 0 of 6 | survivor count [6]: 0 of 6

C[N+]1(Cc2ccccc2)C2CCC(O)C1CC2 (stereo not drawn)
survivor count (dose: 60.0 mg/kg/injection, schedule: Q01DX005 (ip), vehicle: saline): 2 of 6 | survivor count (dose: 120.0 mg/kg/injection, schedule: Q01DX005 (ip), vehicle: saline): 0 of 6 | survivor count (dose: 240.0 mg/kg/injection, schedule: Q01DX005 (ip), vehicle: saline): 0 of 6

CN(C)c1ccc(C(Cl)[O][Sn]([Cl])([c]2ccccc2)[c]2ccccc2)cc1.[CH3][Sn]([CH3])([Cl])[Cl] (stereo not drawn)
T/C (dose: 1.56 mg/kg/injection, schedule: Q01DX005 (ip), vehicle: saline with Tween-80): 129 % of control | T/C (dose: 3.12 mg/kg/injection, schedule: Q01DX005 (ip), vehicle: saline with Tween-80): 141 % of control | T/C (dose: 6.25 mg/kg/injection, schedule: Q01DX005 (ip), vehicle: saline with Tween-80, evaluated on day 20): 148 % of control | T/C (dose: 6.25 mg/kg/injection, schedule: Q01DX005 (ip), vehicle: saline with Tween-80, evaluated on day 30): 129 % of control | survivor count (dose: 12.5 mg/kg/injection, schedule: Q01DX005 (ip), vehicle: saline with Tween-80): 0 of 6 (2×) and 1 of 6 | survivor count (dose: 50.0 mg/kg/injection, schedule: Q01DX005 (ip), vehicle: saline with Tween-80): 0 of 6 | survivor count (dose: 100.0 mg/kg/injection, schedule: Q01DX005 (ip), vehicle: saline with Tween-80): 0 of 6 | survivor count [2]: 0 of 6

O=C(O)C(O)C(O)C1[O][Sb][O]C1C(=O)O (stereo not drawn)
T/C (dose: 25.0 mg/kg/injection, schedule: Q01DX005 (ip), vehicle: saline): 126 % of control | T/C [3]: 135 and 139 % of control | survivor count [4]: 0 of 5 and 2 of 5 | T/C [2]: 129 % of control | survivor count [5]: 0 of 5

CC(C)(C)C(=O)OC/C=C\COC(=O)c1ccccc1
T/C [1]: 125 % of control

CN(C)C1=C(N(C)C)C1N(C)C
survivor count (dose: 100.0 mg/kg/injection, schedule: Q04DX003 (ip), vehicle: saline): 5 of 6 | survivor count (dose: 200.0 mg/kg/injection, schedule: Q04DX003 (ip), vehicle: saline): 0 of 6 | survivor count (dose: 400.0 mg/kg/injection, schedule: Q04DX003 (ip), vehicle: saline): 0 of 6

C/C(=C(/O)c1ccc(Cl)cc1)c1nc2ccc(Cl)cc2[nH]c1=O
survivor count (dose: 240.0 mg/kg/injection, schedule: Q01DX005 (ip), vehicle: Klucel (hydroxypropylcellulose) (HPC)): 6 of 6

C=CCN=C(NC(C)(C)C)c1ccccc1
survivor count [9]: 0 of 5

CC(C)(C)c1cc(O)cc(C(=O)O)c1O
survivor count (dose: 200.0 mg/kg/injection, schedule: Q01DX009 (ip), vehicle: saline with Tween-80): 2 of 6

O=C(NC1CC(c2ccccc2)(c2ccccc2)OC1=O)OCc1ccccc1 (stereo not drawn)
survivor count (dose: 100.0 mg/kg/injection, schedule: Q01DX009 (ip), vehicle: saline with Tween-80): 6 of 6

C[S+]1C2(C3CC4CC(C3)CC2C4)C12C1CC3CC(C1)CC2C3 (stereo not drawn)
survivor count (dose: 200.0 mg/kg/injection, schedule: Q01DX005 (ip), vehicle: distilled water + alcohol): 0 of 5

CCCC(O)C(NC(=O)CCl)C(=O)O (stereo not drawn)
survivor count [10]: 6 of 6 | survivor count [7]: 5 of 6

O=NN(CCCl)C(=O)NC1C2CC3CC(C2)CC1C3 (stereo not drawn)
T/C (dose: 5.0 mg/kg/injection, schedule: Q04DX003 (ip), vehicle: other): 140 % of control | survivor count (dose: 200.0 mg/kg/injection, schedule: Q04DX003 (ip), vehicle: other): 2 of 6 | survivor count (dose: 400.0 mg/kg/injection, schedule: Q04DX003 (ip), vehicle: other): 2 of 6

O=[N+]([O-])c1ccc(/C(=C/c2ccc(F)cc2)S(=O)(=O)c2ccccc2)o1
survivor count (dose: 200.0 mg/kg/injection, schedule: Q01DX009 (ip), vehicle: suspension in saline): 6 of 6
